According to patent US12303590B2, “Method of treating osteoarthritis” (ORTHOTROPHIX, INC., priority 2018, dated 2025):
Part of at least one peptide drawing is inferred or uncertain, most often the ends. Peptide text beside a SMILES is read from it.

Test system: subjects with bilateral patello-femoral knee osteoarthritis
Test: Randomized double-blind placebo-controlled study of TPX-100 in patients with osteoarthritis of the knees (Example 1)
Assay type: in vivo, human
Conditions: over the 12-month study period
Protocol: A multicenter, randomized double-blind, placebo-controlled study was designed to investigate the safety, tolerability, pharmacokinetics, and efficacy of TPX-100 administered in four weekly doses in subjects with bilateral patello-femoral knee osteoarthritis. The study was conducted under an open IND (investigational new drug application) at CDER (Center for Drug Evaluation and Research) of the U.S. FDA (The United States Food and Drug Administration) in compliance with GCP (Good Clinical Practice) and ICH (International Conference on Harmonization of Technical Requirements for Registration of Pharmaceuticals for Human Use) guidelines. Eighteen (18) orthopedic, rheumatologic and family practice centers in the U.S. participated in the study. […]
Subjects in Part A were enrolled in sequential cohorts and randomized to receive 20, 50, 100 or 200 mg of TPX-100 in one knee (Index Knee) and identical placebo in the contralateral (Control) knee. Subjects, sites and sponsor and central MRI readers were blinded as to treatment assignment. A Safety Review Committee (SRC) evaluated safety in each dosing cohort. The SRC assessed safety and determined whether the next higher dosing regimen could be enrolled. All dosing cohorts in Part A were completed and analyzed with regard to safety prior to dose selection and initiation of Part B. […]

SMILES: CC[C@H](C)[C@H](NC(=O)[C@H](CC(=O)O)NC(=O)[C@H](CC(N)=O)NC(=O)[C@H](CC(=O)O)NC(=O)CNC(=O)[C@H](CCCNC(=N)N)NC(=O)[C@H](CCC(=O)O)NC(=O)[C@H](CCC(N)=O)NC(=O)[C@H](CC(C)C)NC(=O)[C@H](CC(=O)O)NC(=O)[C@@H](N)[C@@H](C)O)C(=O)N[C@@H](CO)C(=O)N1CCC[C@H]1C(=O)N[C@@H](Cc1ccccc1)C(=O)N[C@@H](CO)C(=O)NCC(=O)N[C@@H](CC(=O)O)C(=O)NCC(=O)N[C@@H](CCC(N)=O)C(=O)N1CCC[C@H]1C(=O)N[C@@H](Cc1ccccc1)C(=O)N[C@@H](CCCCN)C(=O)N[C@@H](CC(=O)O)C(N)=O [TPX-100] (H-TDLQERGDNDISPFSGDGQPFKD-NH2; N-terminus assumed)
- Decrease in use of analgesics by participants: 62.5%
